Data as given in PubChem BioAssay AID652272 (Drosophila RNAi Screening Center, 2013)
The deposit covers about 21,000 reagents; below is an unselected part of those with a known target gene and a result. Over the whole deposit, 503 (2.4%) are marked active. 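Raw plate light values, not normalised; calls rest on replicate z-scores that were not deposited; hits include reporter decreases as well as increases.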 Names joined by + are all predicted targets of the reagent. Not stated in the record: the amount of reagent, the time to read-out.

- Purpose: 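Finding fly genes that regulate Hedgehog signal transduction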 (primary screen)
- System: Drosophila clone 8 (Cl8) cells
- Reagents: long dsRNA against Drosophila genes
- Measured: 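Plate reader light from a firefly reporter under a ptc promoter fragment that responds to Hedgehog, with Renilla light as transfection reference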
- Scale: firefly Hh reporter signal: higher = more ptc reporter light; Renilla reference signal: higher = more Renilla control light
- Call rule: 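Called a hit if the two-replicate mean z-score lies below -2 or above +3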
- Meaning of the calls: active = hit: reporter lowered or raised; inactive = not a hit

Silencing of polybromo (GeneID 42954) [DRSC14307] resulted in: firefly Hh reporter signal, replicate 1 = 1.11e5; firefly Hh reporter signal, replicate 2 = 61163; Renilla reference signal, replicate 1 = 4385; Renilla reference signal, replicate 2 = 2620; inactive.
After knock-down of CG14265 (GeneID 31297) [DRSC18591] the results were firefly Hh reporter signal, replicate 1 = 1.59e5; firefly Hh reporter signal, replicate 2 = 4.21e5; Renilla reference signal, replicate 1 = 5825; Renilla reference signal, replicate 2 = 14899; inactive.
smid (GeneID 38824) [DRSC11398] showed firefly Hh reporter signal, replicate 1 = 79584; firefly Hh reporter signal, replicate 2 = 90829; Renilla reference signal, replicate 1 = 8784; Renilla reference signal, replicate 2 = 6074; inactive.
cher (GeneID 42066) [DRSC16924] scored firefly Hh reporter signal, replicate 1 = 1.18e5; firefly Hh reporter signal, replicate 2 = 98499; Renilla reference signal, replicate 1 = 5033; Renilla reference signal, replicate 2 = 4203; inactive.
With knock-down of ND-51L2 (GeneID 36695) [DRSC07080], the screen gave firefly Hh reporter signal, replicate 1 = 69824; firefly Hh reporter signal, replicate 2 = 48784; Renilla reference signal, replicate 1 = 1947; Renilla reference signal, replicate 2 = 3312; inactive.
Against CG43894 (GeneID 39464) [DRSC09225] the deposit lists firefly Hh reporter signal, replicate 1 = 3.16e5; Renilla reference signal, replicate 1 = 6298; inactive.
With knock-down of CG43894 (GeneID 39464) [DRSC10123] the results were firefly Hh reporter signal, replicate 1 = 29078; firefly Hh reporter signal, replicate 2 = 28713; firefly Hh reporter signal, replicate 3 = 37568; Renilla reference signal, replicate 1 = 2994; Renilla reference signal, replicate 2 = 2649; inactive.
Silencing of Ir100a (GeneID 43753) [DRSC14329] gave: firefly Hh reporter signal, replicate 1 = 1.22e5; firefly Hh reporter signal, replicate 2 = 3.44e5; Renilla reference signal, replicate 1 = 4442; Renilla reference signal, replicate 2 = 11341; inactive.
After knock-down of Cdc23 (GeneID 35315) [DRSC02708] the results were firefly Hh reporter signal, replicate 1 = 1.04e5; firefly Hh reporter signal, replicate 2 = 59642; Renilla reference signal, replicate 1 = 3921; Renilla reference signal, replicate 2 = 1888; inactive.
After knock-down of CG9346 (GeneID 37381) [DRSC04542], the record shows firefly Hh reporter signal, replicate 1 = 1.16e5; firefly Hh reporter signal, replicate 2 = 88257; Renilla reference signal, replicate 1 = 5600; Renilla reference signal, replicate 2 = 3656; inactive.
For jagn (GeneID 40714) [DRSC12152], the entry reads firefly Hh reporter signal, replicate 1 = 2.06e5; firefly Hh reporter signal, replicate 2 = 1.32e5; Renilla reference signal, replicate 1 = 7287; Renilla reference signal, replicate 2 = 5393; inactive.
CG33702 (GeneID 3771932) [DRSC08986] scored firefly Hh reporter signal, replicate 1 = 1.07e5; firefly Hh reporter signal, replicate 2 = 2.36e5; Renilla reference signal, replicate 1 = 2921; Renilla reference signal, replicate 2 = 9048; inactive.
mod(mdg4) + pre-mod(mdg4)-U [DRSC13476] showed firefly Hh reporter signal, replicate 1 = 50128; firefly Hh reporter signal, replicate 2 = 1.71e5; Renilla reference signal, replicate 1 = 11299; Renilla reference signal, replicate 2 = 3970; inactive.
For l(3)L1231 (GeneID 41776) [DRSC16323] the deposit lists firefly Hh reporter signal, replicate 1 = 98760; firefly Hh reporter signal, replicate 2 = 71146; Renilla reference signal, replicate 1 = 4307; Renilla reference signal, replicate 2 = 3190; inactive.

2 entries already listed, sorted by “firefly Hh reporter signal, replicate 2”, ascending:
smid (GeneID 38824) [DRSC11398] | firefly Hh reporter signal, replicate 1 = 79584; firefly Hh reporter signal, replicate 2 = 90829; Renilla reference signal, replicate 1 = 8784; Renilla reference signal, replicate 2 = 6074; Call = inactive
cher (GeneID 42066) [DRSC16924] | firefly Hh reporter signal, replicate 1 = 1.18e5; firefly Hh reporter signal, replicate 2 = 98499; Renilla reference signal, replicate 1 = 5033; Renilla reference signal, replicate 2 = 4203; Call = inactive
